## Library screening results

Data taken from ChEMBL document CHEMBL3988442, “University of Dundee, Small-Polar-MMV Screening Library” (2021).

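Whole-cell assay for inhibitors of Mycobacterium tuberculosis growth, labelled Cornell in the record; the read-out is not stated. The concentration is filed as 10 mM, unlikely as a test dose, so the dose is not known. The record gives no direction; compounds strong in two other growth screens of this library score well above the rest, so higher reads as stronger inhibition. Size under these conditions: about 53,000 compounds, about 900 of them at 50% or above in at least one test.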

The filed quantity is “Percent Effect” (%).
The record does not define 0% and 100%; most values in the screen are far below 50% and negative numbers occur (in some assays of this library far below -100).
Compounds were drawn at random from those tested, without regard to their results.

With [H][C@]12CC[C@]([H])(CN(C(=O)c3ccc4c(c3)OCO4)C1)N(CC=C(C)C)C2 the screen gave 25.25%.
With COc1c(C2CCCN2Cc2nc(C3CC3)no2)c(C)nn1C (centres unmarked) the screen gave -19.26%.
With O=C(CCNS(=O)(=O)c1ccccc1)NCc1ccoc1 the screen gave 17.01%.
With Cc1cccc(-c2ccc(C(=O)NCC3CCCO3)c(=O)[nH]2)c1 (centres unmarked) the screen gave 8.735%.
With CC(C)NC(=O)Nc1cccc2c1CCN(S(C)(=O)=O)C2 the screen gave -30.35%.
With Cl.Cl.OC(CN1CCN(Cc2ccccc2)CC1)C1CC1 (centres unmarked) the screen gave 12.68%.
With CS(=O)(=O)NCCCNc1ccc(C(F)(F)F)cc1C#N the screen gave -11.37%.
With Cc1nn2cnnc2c(C)c1CCC(=O)Nc1nnc(C(C)C)s1 the screen gave -3.386%.
With COc1cccc(-c2csc(Cn3ccc(=O)[nH]c3=O)n2)c1 the screen gave 12.26%.
With CN(C)CC1CN(CC(=O)N2CCc3ccccc32)CCO1 (centres unmarked) the screen gave -0.643%.
With CC(c1nnc(-c2cccs2)o1)N1CCn2c(nnc2C2CC2)C1 (centres unmarked) the screen gave -6.063%.
With O=C(O)C(F)(F)F.O=C(O)C(F)(F)F.O=C(c1cnc2n1CCN(Cc1ccccc1)C2)N1CCCC1 the screen gave 23.8%.
With CN(C)C(=O)c1c[nH]nc1C1CCN(S(=O)(=O)c2ccccc2)CC1 the screen gave -1.769%.
With CCCS(=O)(=O)c1ccc(N2CCC(Cc3ccccc3)CC2)nn1 the screen gave -8.05%.
With Cc1cc(-c2cnc(N3CCN(C)CC3)nc2C(C)C)on1 the screen gave 35.92%.
With CCCNC(=O)Nc1ccn(CCCOC)n1 the screen gave -23.33%.
With [H][C@]12C[C@H](C(=O)NCC3CC3)N(C(C)=O)[C@@]1([H])CN(Cc1ccco1)C2 the screen gave -3.82%.
With COc1cc(CNCc2ccnc(N3CCOCC3)c2)cc(Cl)c1OC the screen gave 5.315%.
With Cc1ncsc1C(=O)N1CCC(c2ccc3c(NC(C)C)n[nH]c3n2)C1 (centres unmarked) the screen gave 12.1%.
With CCSc1ccc(C(=O)NCCc2nnc(-c3ccco3)[nH]2)cn1 the screen gave 9.559%.

The first 2 entries again:

[H][C@]12CC[C@]([H])(CN(C(=O)c3ccc4c(c3)OCO4)C1)N(CC=C(C)C)C2 gave 25.25%.
COc1c(C2CCCN2Cc2nc(C3CC3)no2)c(C)nn1C (centres unmarked) gave -19.26%.